Some results were stated once for a whole list of compounds, not compound by compound.
Test system: SARS-CoV-2
Type: cell-based
Details: dose dependent, within 24 hours of infection

SMILES | decrease in cell-free viral RNA levels
CN(C)c1nc(N)c(C(=O)NC(=N)N)nc1C#Cc1ccccc1 [DMA-135] | 10-30 fold
CN(C)c1nc(N)c(C(=O)NC(=N)N)nc1-c1ccc(-c2ccccc2)cc1 [DMA-155] | 10-30 fold

— US20240116879A1, “AMILORIDE DERIVATIVES AND METHODS OF USING SAME FOR THE TREATMENT OF VIRAL INFECTIONS” (priority 2020, published 2024)
